Test results published in patent publication US20060223096A1 (GLYCART BIOTECHNOLOGY, published 2006).
No constants are given. Whether binding was seen depends on the method and setting. Some results given as binding are weak or reduced against the parent protein; the word gives no strength.

Amino acid sequences for entries named in this document (tags omitted). Residues count along the entry.
UniProt Q6UVK1, residues 30-2322: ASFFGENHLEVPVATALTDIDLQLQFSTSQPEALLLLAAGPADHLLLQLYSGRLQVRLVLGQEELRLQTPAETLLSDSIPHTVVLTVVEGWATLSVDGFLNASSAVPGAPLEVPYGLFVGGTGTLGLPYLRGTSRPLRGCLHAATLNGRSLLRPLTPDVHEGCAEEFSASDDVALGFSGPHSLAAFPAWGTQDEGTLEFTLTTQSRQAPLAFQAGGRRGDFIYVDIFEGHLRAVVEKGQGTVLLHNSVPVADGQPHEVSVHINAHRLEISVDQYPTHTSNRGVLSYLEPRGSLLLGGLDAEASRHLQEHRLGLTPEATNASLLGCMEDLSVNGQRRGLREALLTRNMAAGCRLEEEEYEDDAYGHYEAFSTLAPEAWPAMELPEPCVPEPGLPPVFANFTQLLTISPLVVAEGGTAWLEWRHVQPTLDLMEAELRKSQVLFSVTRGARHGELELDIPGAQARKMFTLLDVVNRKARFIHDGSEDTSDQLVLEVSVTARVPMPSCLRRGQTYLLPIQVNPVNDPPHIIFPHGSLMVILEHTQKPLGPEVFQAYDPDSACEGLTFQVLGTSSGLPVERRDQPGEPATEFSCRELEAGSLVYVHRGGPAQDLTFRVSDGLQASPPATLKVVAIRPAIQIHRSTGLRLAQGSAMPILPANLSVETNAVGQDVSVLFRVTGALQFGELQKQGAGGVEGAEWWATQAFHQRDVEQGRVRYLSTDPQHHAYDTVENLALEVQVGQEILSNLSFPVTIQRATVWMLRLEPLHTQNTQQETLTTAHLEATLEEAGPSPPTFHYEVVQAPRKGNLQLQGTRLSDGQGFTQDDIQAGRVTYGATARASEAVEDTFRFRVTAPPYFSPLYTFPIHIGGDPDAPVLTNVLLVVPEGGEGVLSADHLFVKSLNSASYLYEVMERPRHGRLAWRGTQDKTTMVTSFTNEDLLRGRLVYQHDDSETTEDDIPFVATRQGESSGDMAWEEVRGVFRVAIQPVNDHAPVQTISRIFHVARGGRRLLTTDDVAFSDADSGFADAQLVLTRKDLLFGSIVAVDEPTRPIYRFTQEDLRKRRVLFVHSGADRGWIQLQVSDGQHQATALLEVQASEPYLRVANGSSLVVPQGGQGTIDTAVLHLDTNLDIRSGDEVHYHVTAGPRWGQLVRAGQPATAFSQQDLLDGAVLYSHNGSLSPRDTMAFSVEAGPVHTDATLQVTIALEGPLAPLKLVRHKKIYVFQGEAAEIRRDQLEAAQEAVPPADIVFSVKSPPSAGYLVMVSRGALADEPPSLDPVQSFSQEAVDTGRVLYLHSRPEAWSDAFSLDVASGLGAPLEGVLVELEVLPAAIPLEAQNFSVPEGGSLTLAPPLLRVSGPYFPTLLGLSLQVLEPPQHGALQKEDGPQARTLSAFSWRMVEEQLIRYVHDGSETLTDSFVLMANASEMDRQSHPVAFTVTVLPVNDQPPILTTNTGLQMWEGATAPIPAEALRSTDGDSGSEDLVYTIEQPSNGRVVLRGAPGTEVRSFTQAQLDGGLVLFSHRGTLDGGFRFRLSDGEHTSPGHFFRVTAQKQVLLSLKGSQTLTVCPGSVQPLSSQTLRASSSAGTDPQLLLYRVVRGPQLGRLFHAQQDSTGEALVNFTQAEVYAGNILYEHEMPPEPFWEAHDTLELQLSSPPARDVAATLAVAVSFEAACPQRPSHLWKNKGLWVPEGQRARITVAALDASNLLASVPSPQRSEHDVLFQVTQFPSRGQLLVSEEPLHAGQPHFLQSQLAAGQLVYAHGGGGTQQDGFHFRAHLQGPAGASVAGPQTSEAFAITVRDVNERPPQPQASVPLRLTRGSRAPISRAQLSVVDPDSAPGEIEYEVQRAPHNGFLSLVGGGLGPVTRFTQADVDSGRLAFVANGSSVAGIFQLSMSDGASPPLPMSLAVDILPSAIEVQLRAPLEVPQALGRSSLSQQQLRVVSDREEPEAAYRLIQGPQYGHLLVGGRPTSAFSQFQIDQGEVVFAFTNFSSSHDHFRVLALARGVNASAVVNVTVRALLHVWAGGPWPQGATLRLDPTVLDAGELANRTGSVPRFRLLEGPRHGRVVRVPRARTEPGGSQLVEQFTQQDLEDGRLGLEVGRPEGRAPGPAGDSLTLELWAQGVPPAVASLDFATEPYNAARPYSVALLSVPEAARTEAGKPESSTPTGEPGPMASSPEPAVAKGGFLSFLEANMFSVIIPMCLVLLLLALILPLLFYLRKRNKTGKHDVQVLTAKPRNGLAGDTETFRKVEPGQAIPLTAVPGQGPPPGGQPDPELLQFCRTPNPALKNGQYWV

Biological target: human melanoma chondroitin sulfate proteoglycan (MCSP) (human) (UniProt Q6UVK1)
Assay: flow cytometry on A375 human melanoma cells

B1: M-KV11 light chain combined with the M-HLG heavy chain (antibody, V domains shown)
VH: EVQLVESGGGLVQPGGSLRLSCAASGFTFSNYWMNWVRQAPGKGLEWVAEIRLKSNNFGRYYAASVKGRFTISRDDSKNTLYLQMNSLKTEDTAVYYCTTYGNYVGHYFDHWGQGTTVTVSS
VL: DIQLTQSPSFLSASVGDRVTITCRASQNVDTNVAWYQQKPGQAPRPLIYSASYRYTGVPSRFSGSGSGTEFTLTISSLQPEDFATYYCQQYNSYPLTFGGGTKVEIKR
  binding: binds
